Assay results as given in PubChem BioAssay AID2685 (National Center for Advancing Translational Sciences (NCATS), 2010).
Some of the results follow. The main result of the screen is listed elsewhere. These columns were measured beside it and carry no call. Most of these compounds were active or inconclusive in the main read-out, so they are no random draw. Potencies come from curve fits of mixed quality, noted in brackets.

Assay: qHTS Assay for Lipid Storage Modulators in Drosophila S3 Cells;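 as to cell number change: cells counted by Cell Tracker Red CMTPX staining in the red channel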
Conditions: BODIPY lipid droplet fluorescence, 18-24 h; for cell number change: measured here: cell count max response, cells fed with added oleic acid
How it was run: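 Laser-scanning cytometry quantifies lipid droplet accumulation (500–530 nm total intensity; droplet/cell object ratio) in oleic acid-fed (400 uM added) Drosophila S3 cells treated with a concentration series. 20 uM Triacsin C defined 100% inhibition.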

[1] = measured here: cell number channel AC50, cells fed with added oleic acid
[2] = measured here: lipid fluorescence (Fed channel) AC50, cells fed with added oleic acid

| SMILES | cell number change [%] | AC50 [1] | AC50 [2] |
| --- | --- | --- | --- |
| N#Cc1cn(-c2ccccc2)nc1-c1ccco1 | -18.3 | – | – |
| COC(=O)c1c(C(=O)OC)c(-c2cccc(C)c2)n2c1CS(=O)(=O)C2 | – | 1.3 µM [rising, full curve] | 1.84 µM [rising, partial curve] |
| O=C(O)C1(c2ccccc2)CCC(Nc2ccccc2)C1 (stereo unspecified) | 28.4 | – | – |
| COc1ccc2cc(-c3cc(C(=O)OCC(=O)NC4CCS(=O)(=O)C4)c4ccccc4n3)ccc2c1 (stereo unspecified) | -61.8 | 16.4 µM [falling, partial curve] | – |
| CCOC(=O)c1c(C)[nH]c(C)c1C(=O)CSc1ncccn1 | – | – | 0.517 µM [rising, full curve] |
| CSc1ncccc1C(=O)OCc1ccccc1Cl | 16.4 | – | – |
| COc1cccc(NC(=O)C2CC2(c2cccc(OC)c2)c2cccc(OC)c2)c1 (stereo unspecified) | -5.97 | – | 29.1 µM [falling, single point] |
| CCOC(=O)c1oc2ccc(Br)cc2c1COC(=O)C1=COCCO1 | 97.5 | 5.8 µM [rising, partial curve] | – |
| O=C1C=C(c2ccc(F)cc2OCc2ccccc2)C[C@@H](c2ccc3c(c2)OCO3)C1 | -2.29 | – | 0.82 µM [rising, full curve, poor fit] |
| CC(C)CN1C(=O)c2ccc(NC(=O)c3ccccc3F)cc2C1=O | 13.8 | – | 2.59 µM [rising, partial curve] |
| CCOC(=O)C(NC(C)=O)(NS(=O)(=O)c1ccccc1)C(F)(F)F (stereo unspecified) | – | 0.461 µM [falling, single point] | – |
| CC(=O)c1c(N2CCOCC2)nc2ccc(Br)cc2c1-c1ccccc1 | 47.6 | – | 29.1 µM [rising, single point] |
| CSCCC(NS(=O)(=O)c1ccccc1F)C(=O)NCC(C)(C)N1CCOCC1 (stereo unspecified) | 14.7 | – | 0.731 µM [falling, full curve] |
| CSCc1ccc(C(=O)NC(C)c2cnn(-c3ccccn3)c2C)o1 (stereo unspecified) | – | – | 6.51 µM [rising, single point] |
| CC(OC(=O)CN1C(=O)c2ccccc2C1=O)C(=O)NC1CCCC1 (stereo unspecified) | 1.28 | – | 10.3 µM [rising, partial curve] |
| CCN1C(=O)[C@@H]2[C@@H](c3ccc(-c4ccc(C(C)=O)cc4)c(OC)c3)N3CCC[C@@]3(C(=O)OC)[C@@H]2C1=O | -15.8 | – | 29.1 µM [falling, single point] |
| CCOc1ccc(NC(=O)CN(C)C(=O)Cc2c[nH]c3ccccc23)cc1OCC | 0.455 | – | 0.82 µM [rising, full curve, poor fit] |
| O=C(NCc1nnnn1-c1ccc(F)cc1)c1ccc([N+](=O)[O-])o1 | – | 6.51 µM [rising, single point] | – |
| CC1(C)CCN2CCC(C)(C)c3c(O)ccc1c32 | – | – | 5.8 µM [falling, full curve, poor fit] |
| O=C(N/N=C/c1cc(Br)ccc1O)Nc1ccccc1 | -28.3 | – | 11.6 µM [falling, partial curve] |
| CC(CCc1ccccc1)NC(=O)C(=O)NCCc1ccccc1 (stereo unspecified) | 10.2 | – | 5.8 µM [rising, full curve] |

Record cards, from the list above. Order of values: cell number change [%] | AC50 [1] | AC50 [2]
CC(=O)c1c(N2CCOCC2)nc2ccc(Br)cc2c1-c1ccccc1 as listed: 47.6 | – | 29.1 µM [rising, single point]
CCOC(=O)C(NC(C)=O)(NS(=O)(=O)c1ccccc1)C(F)(F)F (stereo unspecified) as listed: – | 0.461 µM [falling, single point] | –
CSc1ncccc1C(=O)OCc1ccccc1Cl as listed: 16.4 | – | –
CC1(C)CCN2CCC(C)(C)c3c(O)ccc1c32 as listed: – | – | 5.8 µM [falling, full curve, poor fit]

(continued)

| SMILES | cell number change [%] | AC50 [1] | AC50 [2] |
| --- | --- | --- | --- |
| Cc1cc(N=Cc2c(O)n(-c3cccc(C(F)(F)F)c3)c(=O)c3ccccc23)no1 | 21.3 | – | 29.1 µM [rising, single point] |
| CCCCn1c(-c2cc(Cl)ccc2OC)n[nH]c1=S | -27.7 | – | 0.651 µM [rising, partial curve, poor fit] |
| Cc1ccccc1OCC(=O)Nc1ccc2[nH]ncc2c1 | -5.49 | – | 6.51 µM [rising, full curve] |
| COc1cc(Br)c(C(C)NC(=O)c2ccc(C)cc2)cc1OC (stereo unspecified) | -13 | – | – |
| Cc1ccc(S(=O)(=O)N2CCN=C2SCc2c(F)cccc2Cl)cc1 | -2.6 | – | 29.1 µM [falling, single point] |
| Cc1cc(NC(=O)c2ccc(Cl)cc2)ccc1NC(=O)c1ccccc1Cl | – | – | 0.411 µM [rising, single point] |
| COc1ccc(Cl)cc1C(=O)Nc1nnn(C)n1 | -5.98 | – | – |
| NC(=O)C1CCN(C(=O)Cn2cccc2C(=O)c2ccccc2)CC1 | -31.7 | 0.13 µM [falling, full curve, poor fit] | 29.1 µM [falling, single point] |
| CC(C)(C)c1cc(CN2CCCC(O)C2)c(O)c(C(C)(C)C)c1 (stereo unspecified) | -77.6 | 29.1 µM [falling, single point] | 29.1 µM [falling, single point] |
| COc1cc(-c2c(-c3cccc(C)c3)oc3ccccc23)cc(OC)c1OC | 20.7 | – | 29.1 µM [rising, single point] |
| CCCc1cc(C(=O)N2CCN(c3ccccc3C)CC2)cs1 | -17 | – | 5.8 µM [rising, partial curve] |
| COc1ccc(C(=O)c2c3ccccc3[n+]([O-])n2CCCN)cc1 | – | – | 25.9 µM [falling, partial curve, poor fit] |
| CCC(C)NCCOc1ccc(Br)cc1 (stereo unspecified) | -6.41 | – | 29.1 µM [falling, single point] |
| COc1ccccc1N1CCN(C(=O)COc2cccc3ccccc23)CC1 | -12 | – | 5.8 µM [falling, single point] |
| Cc1nc2cc(NC(=O)COc3ccccc3C#N)ccc2n1-c1ccccc1 | 30.8 | 1.64 µM [rising, full curve, poor fit] | 23.1 µM [rising, partial curve, poor fit] |
| COC(=O)C(CC(=O)c1ccc(Br)cc1)n1cccn1 (stereo unspecified) | -27.2 | – | 29.1 µM [falling, single point] |
| COC(=O)CNC(=O)CN(c1ccc(OC)cc1OC)S(=O)(=O)c1ccccc1 | -30.4 | 1.64 µM [falling, partial curve] | – |
| O=C(c1cc(-c2cccc(O)c2)on1)N1CCCCC1 | -7.37 | – | 23.1 µM [falling, single point] |
| CCOC(=O)Nc1ccc2c(c1)N(C(=O)CN(CC)CC)c1ccccc1CC2 | -10.2 | – | 32.6 µM [rising, single point] |
| Cn1c(SCc2cccc([N+](=O)[O-])c2)nc2ccccc2c1=O | -22.2 | – | 18.4 µM [falling, single point] |
| COc1ccc(O)c(/C=N/NC(=O)CN2CCS(=O)(=O)CC2)c1 | 2.79 | – | 10.3 µM [falling, single point] |

| SMILES | cell number change [%] | AC50 [1] | AC50 [2] |
| --- | --- | --- | --- |
| Cc1ccc2cc3cc(C(=O)NCCCN4CC(C)CC(C)C4)oc3nc2c1 (stereo unspecified) | 15.8 | – | – |
| CC(C)N(Cc1nc(-c2ccccc2)no1)C(=O)CN(C)S(=O)(=O)c1ccc(Br)cc1 | -30.3 | 29.1 µM [falling, single point] | 32.6 µM [falling, single point] |
| O=C([C@@H]1CCCN1C(=O)c1cccs1)N1CCN(S(=O)(=O)c2ccccc2F)CC1 | 11.5 | – | 6.51 µM [rising, partial curve, poor fit] |
| Cn1c(N2CCC(C(N)=O)CC2)nc2c1c(=O)n(Cc1ccc(Cl)cc1)c(=O)n2C | 14 | – | 2.91 µM [rising, partial curve] |
| Cc1ccc(NC(=O)CCC(=O)N2CCC(c3ccccc3)=N2)cc1S(=O)(=O)N1CCCCC1 | -64.7 | 20.6 µM [falling, partial curve] | – |
| COc1cc(SC#N)ccc1N=Cc1c(C)[nH]n(-c2ccc(C)cc2C)c1=O | -41.8 | 32.6 µM [falling, single point] | – |
| O=C(O)C/C(=C\c1ccc2c(c1)OCO2)c1nc2ccccc2s1 | -7.69 | – | 29.1 µM [rising, single point] |
| COC(=O)c1[nH]c2ccc(C)cc2c1NC(=O)CN1CCc2cc(OC)c(OC)cc2C1 | -17 | – | – |
| COc1ccc(CC(=O)Nc2ccccc2NC(=O)Cc2ccc(OC)cc2)cc1 | – | – | 0.13 µM [rising, full curve, poor fit] |
| Cc1ccc(C)c2[nH]c(=O)c(CCNC(=O)CC(C)C)cc12 | – | 0.206 µM [rising, partial curve] | 0.082 µM [rising, full curve, poor fit] |
| N#CCCN(C(=O)CO/N=C/c1cccc([N+](=O)[O-])c1)c1ccccc1 | 50.7 | 16.4 µM [rising, single point] | – |
| CC(C)(C)CN1CCNC(=O)C1CC(=O)N1CCC(C(=O)N2CCOCC2)CC1 (stereo unspecified) | -6.27 | – | 0.366 µM [rising, single point] |
| COc1ccc(N(Cc2ccco2)C(=O)c2ccccc2F)cc1OC | -1.04 | – | 29.1 µM [rising, single point] |
| O=C(NCC1(c2ccccc2)CCOCC1)c1cccs1 | – | 0.00461 µM [rising, full curve, poor fit] | – |
| COc1ccc(-c2[nH]ncc2C=O)cc1OC | -7.8 | 0.0731 µM [rising, full curve, poor fit] | – |
| COc1ccc2[nH]c(=O)c(CN(Cc3ccc(C)cc3)Cc3nnnn3CC3CCCO3)cc2c1 (stereo unspecified) | 3.31 | – | – |
| C=CCNC(=O)c1ccccc1S(=O)c1ccccc1C#N (stereo unspecified) | 19.4 | – | 7.31 µM [rising, partial curve, poor fit] |
| Cc1nc2ccccn2c1C(=O)NN=C1C2CC3CC(C2)CC1C3 | 13.6 | – | – |
| COc1cc2[nH]c(=O)n(CCC(=O)NC3CCN(Cc4ccccc4)CC3)c(=O)c2cc1OC | 1.46 | – | – |
| Cc1ccc(OCC(=O)Nc2ccccc2C(N)=O)cc1 | 7.3 | – | – |
| CC1CCCC(C)N1C(=O)CNCc1ccc2c(c1)OCO2 (stereo unspecified) | 48.8 | 23.1 µM [rising, partial curve] | 20.6 µM [rising, partial curve] |

Laid out differently: 2 of the compounds above
SMILES,cell number change [%],AC50 [1],AC50 [2]
CCC(C)NCCOc1ccc(Br)cc1 (stereo unspecified),-6.41,–,"29.1 µM [falling, single point]"
COc1ccccc1N1CCN(C(=O)COc2cccc3ccccc23)CC1,-12,–,"5.8 µM [falling, single point]"
